The record followed here is the supplement of paper PMC10849652.

Protein sequences, listed by entry. Tags and fused reporters are not part of them. Lines headed by an entry give the natural chain unless they say otherwise; changes in a name come on top.
UniProt Q96KC8: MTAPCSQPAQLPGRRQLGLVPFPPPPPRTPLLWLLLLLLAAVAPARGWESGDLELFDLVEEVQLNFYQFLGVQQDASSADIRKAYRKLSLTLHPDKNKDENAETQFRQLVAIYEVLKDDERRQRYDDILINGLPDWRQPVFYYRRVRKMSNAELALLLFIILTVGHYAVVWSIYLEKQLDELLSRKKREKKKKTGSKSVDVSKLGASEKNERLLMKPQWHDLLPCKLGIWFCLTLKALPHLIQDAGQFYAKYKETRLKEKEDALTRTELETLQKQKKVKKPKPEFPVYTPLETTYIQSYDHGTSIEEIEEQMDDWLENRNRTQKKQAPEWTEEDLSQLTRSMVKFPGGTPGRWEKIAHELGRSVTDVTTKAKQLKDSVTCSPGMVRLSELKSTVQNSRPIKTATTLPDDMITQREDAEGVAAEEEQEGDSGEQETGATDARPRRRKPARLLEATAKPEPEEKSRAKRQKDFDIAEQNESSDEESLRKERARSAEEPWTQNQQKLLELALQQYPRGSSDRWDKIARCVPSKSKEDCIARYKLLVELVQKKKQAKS
UniProt O77932: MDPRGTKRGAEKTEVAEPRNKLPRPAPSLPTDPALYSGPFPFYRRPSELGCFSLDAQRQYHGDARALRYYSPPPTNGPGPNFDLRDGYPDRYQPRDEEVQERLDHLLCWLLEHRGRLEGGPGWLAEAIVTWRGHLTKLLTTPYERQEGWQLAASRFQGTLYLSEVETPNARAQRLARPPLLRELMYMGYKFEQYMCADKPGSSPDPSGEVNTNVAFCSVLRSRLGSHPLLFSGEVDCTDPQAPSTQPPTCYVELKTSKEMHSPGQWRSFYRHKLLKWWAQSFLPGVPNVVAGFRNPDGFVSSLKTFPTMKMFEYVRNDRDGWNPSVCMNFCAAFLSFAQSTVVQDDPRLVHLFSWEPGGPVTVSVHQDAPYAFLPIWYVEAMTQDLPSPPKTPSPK
UniProt P25685, whole entry, looked up: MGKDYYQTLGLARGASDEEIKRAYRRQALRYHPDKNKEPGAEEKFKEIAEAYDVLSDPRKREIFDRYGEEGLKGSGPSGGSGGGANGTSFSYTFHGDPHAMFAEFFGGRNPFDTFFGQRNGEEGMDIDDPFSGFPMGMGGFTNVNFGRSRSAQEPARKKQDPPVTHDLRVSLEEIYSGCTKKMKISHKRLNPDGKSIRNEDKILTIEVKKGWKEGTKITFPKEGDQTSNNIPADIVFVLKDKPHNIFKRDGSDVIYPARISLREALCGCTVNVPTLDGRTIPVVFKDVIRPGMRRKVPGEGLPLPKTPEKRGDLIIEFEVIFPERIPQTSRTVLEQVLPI
UniProt P25686: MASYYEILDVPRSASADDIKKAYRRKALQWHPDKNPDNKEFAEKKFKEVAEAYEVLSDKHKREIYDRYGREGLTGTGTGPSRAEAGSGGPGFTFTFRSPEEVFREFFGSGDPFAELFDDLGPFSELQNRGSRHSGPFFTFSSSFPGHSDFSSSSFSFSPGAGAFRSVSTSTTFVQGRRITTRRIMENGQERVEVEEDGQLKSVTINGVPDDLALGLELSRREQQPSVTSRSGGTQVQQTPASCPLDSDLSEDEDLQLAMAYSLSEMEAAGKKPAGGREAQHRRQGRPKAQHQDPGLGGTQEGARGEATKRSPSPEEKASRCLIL
UniProt Q6XUX3: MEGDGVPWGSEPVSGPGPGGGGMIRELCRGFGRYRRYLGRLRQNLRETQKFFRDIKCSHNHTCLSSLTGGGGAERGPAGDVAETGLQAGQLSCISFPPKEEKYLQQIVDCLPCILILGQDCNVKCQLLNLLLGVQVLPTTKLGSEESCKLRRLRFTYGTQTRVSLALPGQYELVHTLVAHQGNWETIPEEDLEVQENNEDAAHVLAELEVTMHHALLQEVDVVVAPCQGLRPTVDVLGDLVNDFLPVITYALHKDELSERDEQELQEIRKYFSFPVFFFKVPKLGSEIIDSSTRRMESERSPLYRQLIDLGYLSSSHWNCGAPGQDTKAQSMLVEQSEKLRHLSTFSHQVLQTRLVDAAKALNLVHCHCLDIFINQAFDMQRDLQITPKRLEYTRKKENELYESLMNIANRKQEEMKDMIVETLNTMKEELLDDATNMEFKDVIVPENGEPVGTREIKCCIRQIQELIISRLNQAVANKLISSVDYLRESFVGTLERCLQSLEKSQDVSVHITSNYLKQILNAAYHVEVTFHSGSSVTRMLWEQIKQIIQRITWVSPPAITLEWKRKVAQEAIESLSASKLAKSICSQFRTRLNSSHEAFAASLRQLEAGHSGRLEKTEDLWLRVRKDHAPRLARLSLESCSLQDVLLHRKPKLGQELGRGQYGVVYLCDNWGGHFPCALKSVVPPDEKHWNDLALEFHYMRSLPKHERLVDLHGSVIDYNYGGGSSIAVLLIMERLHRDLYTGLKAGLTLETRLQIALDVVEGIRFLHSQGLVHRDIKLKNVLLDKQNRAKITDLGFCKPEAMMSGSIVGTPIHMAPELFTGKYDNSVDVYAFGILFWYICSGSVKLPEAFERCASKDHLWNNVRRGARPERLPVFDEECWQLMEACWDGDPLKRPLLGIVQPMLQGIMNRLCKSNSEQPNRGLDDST
UniProt Q5JPH6: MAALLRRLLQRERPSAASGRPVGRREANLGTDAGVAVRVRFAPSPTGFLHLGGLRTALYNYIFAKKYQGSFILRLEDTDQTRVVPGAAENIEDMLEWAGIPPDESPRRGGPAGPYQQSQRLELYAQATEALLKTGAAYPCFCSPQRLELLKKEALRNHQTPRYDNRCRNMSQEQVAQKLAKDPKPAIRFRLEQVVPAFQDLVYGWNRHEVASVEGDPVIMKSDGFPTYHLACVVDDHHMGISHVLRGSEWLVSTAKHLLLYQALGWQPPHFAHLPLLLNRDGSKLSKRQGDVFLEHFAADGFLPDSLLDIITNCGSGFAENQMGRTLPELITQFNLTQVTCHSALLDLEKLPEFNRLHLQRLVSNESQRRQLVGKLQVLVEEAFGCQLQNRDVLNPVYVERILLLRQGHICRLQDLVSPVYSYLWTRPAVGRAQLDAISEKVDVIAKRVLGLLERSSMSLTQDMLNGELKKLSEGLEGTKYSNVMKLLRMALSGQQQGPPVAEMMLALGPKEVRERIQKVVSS
UniProt Q14195, whole entry, looked up: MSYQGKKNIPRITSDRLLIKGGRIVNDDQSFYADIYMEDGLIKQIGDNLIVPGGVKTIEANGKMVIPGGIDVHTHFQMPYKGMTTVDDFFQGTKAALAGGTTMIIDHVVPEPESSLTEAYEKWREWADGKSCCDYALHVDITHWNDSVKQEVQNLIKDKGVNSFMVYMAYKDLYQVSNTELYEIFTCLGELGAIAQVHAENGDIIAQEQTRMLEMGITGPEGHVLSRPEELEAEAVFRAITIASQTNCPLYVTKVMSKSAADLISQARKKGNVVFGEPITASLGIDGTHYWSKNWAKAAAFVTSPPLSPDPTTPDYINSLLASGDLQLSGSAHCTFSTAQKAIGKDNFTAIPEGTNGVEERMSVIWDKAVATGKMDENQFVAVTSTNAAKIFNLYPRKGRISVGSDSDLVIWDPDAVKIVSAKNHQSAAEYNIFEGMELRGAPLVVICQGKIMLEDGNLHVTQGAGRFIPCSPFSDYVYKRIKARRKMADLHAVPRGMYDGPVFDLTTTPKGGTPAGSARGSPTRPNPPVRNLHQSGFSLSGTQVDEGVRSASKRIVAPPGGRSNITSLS
UniProt O43237, whole entry, looked up: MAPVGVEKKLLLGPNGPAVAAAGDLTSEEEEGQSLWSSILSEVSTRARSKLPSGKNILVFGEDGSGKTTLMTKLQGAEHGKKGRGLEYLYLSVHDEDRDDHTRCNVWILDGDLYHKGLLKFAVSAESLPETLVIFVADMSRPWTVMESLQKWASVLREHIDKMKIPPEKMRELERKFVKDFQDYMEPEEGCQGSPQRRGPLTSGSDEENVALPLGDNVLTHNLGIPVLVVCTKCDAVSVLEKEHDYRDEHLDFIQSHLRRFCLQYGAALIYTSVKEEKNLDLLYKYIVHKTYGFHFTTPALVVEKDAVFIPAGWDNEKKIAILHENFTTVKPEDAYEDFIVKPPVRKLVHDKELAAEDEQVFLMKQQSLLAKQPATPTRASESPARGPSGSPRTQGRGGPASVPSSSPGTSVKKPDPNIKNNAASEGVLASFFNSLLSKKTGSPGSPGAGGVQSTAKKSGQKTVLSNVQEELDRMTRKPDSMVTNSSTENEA
UniProt Q99956: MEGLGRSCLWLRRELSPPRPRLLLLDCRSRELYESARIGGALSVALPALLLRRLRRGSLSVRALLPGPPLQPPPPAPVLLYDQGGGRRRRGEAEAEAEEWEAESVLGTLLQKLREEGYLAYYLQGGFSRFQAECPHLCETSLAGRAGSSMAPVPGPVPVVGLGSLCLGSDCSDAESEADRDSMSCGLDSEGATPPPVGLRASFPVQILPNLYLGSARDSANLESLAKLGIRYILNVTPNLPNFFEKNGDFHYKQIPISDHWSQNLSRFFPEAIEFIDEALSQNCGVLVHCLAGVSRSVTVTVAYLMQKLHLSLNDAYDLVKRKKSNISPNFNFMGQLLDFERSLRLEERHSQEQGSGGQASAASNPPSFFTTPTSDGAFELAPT
UniProt P23919: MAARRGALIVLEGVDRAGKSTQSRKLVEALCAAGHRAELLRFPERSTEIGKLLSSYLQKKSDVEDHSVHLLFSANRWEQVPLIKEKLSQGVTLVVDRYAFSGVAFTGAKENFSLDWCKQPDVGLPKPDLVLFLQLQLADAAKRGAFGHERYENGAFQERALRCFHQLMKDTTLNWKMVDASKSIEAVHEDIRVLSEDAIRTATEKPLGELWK
UniProt Q96G46: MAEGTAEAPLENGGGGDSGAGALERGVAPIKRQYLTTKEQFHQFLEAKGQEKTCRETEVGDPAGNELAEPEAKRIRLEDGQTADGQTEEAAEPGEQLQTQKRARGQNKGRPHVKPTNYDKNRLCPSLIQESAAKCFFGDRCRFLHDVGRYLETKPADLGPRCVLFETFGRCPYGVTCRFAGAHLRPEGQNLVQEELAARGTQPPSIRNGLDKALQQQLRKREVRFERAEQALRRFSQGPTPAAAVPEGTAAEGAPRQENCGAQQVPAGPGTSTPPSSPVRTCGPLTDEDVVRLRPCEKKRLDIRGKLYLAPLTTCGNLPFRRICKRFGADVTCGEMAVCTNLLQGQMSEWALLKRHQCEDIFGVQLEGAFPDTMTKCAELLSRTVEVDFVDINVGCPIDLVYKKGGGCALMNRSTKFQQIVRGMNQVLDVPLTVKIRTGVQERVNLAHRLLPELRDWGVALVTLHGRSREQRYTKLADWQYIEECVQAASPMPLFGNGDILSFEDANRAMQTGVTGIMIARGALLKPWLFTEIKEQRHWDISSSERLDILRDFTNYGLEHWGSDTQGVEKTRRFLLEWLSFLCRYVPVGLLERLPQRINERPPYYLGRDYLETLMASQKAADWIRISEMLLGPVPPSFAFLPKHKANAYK
UniProt Q13409, whole entry, looked up: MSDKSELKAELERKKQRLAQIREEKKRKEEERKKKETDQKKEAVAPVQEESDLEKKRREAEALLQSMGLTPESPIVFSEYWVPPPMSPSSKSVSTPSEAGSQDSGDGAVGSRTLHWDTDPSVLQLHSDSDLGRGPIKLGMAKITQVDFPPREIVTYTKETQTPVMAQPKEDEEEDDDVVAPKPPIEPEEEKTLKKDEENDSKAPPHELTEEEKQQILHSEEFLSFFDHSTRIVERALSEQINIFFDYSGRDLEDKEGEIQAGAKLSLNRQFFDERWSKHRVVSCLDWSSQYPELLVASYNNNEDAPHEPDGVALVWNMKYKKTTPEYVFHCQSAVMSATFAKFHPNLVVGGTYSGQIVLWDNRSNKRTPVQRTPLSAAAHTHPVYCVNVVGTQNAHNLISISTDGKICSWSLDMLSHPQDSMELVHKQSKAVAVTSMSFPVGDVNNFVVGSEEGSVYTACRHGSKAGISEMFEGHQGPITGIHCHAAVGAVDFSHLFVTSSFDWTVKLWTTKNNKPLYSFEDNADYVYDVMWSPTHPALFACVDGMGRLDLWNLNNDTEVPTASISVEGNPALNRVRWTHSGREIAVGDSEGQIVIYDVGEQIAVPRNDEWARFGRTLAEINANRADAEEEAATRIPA
UniProt Q9H2P9: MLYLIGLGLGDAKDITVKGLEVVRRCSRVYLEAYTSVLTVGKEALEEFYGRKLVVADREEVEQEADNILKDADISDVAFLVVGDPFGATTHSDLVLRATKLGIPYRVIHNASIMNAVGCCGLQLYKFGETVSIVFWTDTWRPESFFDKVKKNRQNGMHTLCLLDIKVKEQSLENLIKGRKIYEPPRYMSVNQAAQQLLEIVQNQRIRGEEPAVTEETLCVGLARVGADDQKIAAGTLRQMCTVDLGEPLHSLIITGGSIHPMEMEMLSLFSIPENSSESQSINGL
UniProt O95147: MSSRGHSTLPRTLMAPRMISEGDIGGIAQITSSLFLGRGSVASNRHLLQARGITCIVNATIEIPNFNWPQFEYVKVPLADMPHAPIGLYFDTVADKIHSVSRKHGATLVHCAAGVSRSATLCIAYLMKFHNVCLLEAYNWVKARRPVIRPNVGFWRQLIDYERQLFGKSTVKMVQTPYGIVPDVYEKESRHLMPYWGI

The other results are listed elsewhere or left out.

Compound in this assay: CN1CCN(CCOc2cc(OC3CCOCC3)c3c(Nc4c(Cl)ccc5c4OCO5)ncnc3c2)CC1 [saracatinib]
As to the kind of experiment: log2 fold change, soluble protein after heating vs DMSO (PISA); higher = thermal stabilisation; K562 cells, 10 uM, 30 min; active = over 0.2 and 3.5 SD of the protein, either way, in both replicates (recomputed). A digest of the protocol: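 For each measurement, 10 μM compound was applied for 30 min to K562 cells at 2×10^6 cells/mL. Aliquots were heated for 3 min across 48°C-58°C, pooled, and extracted in PBS with 0.5% NP-40 at 4°C; the supernatant after 21,000xg for 90 min was soluble protein. This was quantified by TMTpro 16plex LC-MS/MS with channel sums equalised, and thermal stability was reported relative to control samples from duplicates, on a log2 fold-change scale.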
As to DNAJC1 (UniProt Q96KC8), the log2 fold change was inactive: -0.02.

As for DXO (UniProt O77932), the log2 fold change was inactive: 0.066.

DNPH1 (UniProt H0Y8X4): the log2 fold change is inactive: -0.049.

As to DNAJB1 (UniProt P25685), the log2 fold change was inactive: -0.003.

As for DNAJB2 (UniProt P25686), the log2 fold change is inactive: 0.042.

In the case of DSTYK (UniProt Q6XUX3), the log2 fold change is inactive: 0.013.

Regarding DNMT3B (UniProt Q9UBC3), the log2 fold change is inactive: -0.277.

For the target EARS2 isoform 2 (UniProt Q5JPH6), the log2 fold change was inactive: 0.014.

For ECPAS (UniProt Q5VYK3), the log2 fold change was inactive: -0.055.

Take DPYSL3 isoform 2 (UniProt Q14195): the log2 fold change was inactive: -0.32.

With DNPEP (UniProt C9JBE1), the log2 fold change is inactive: -0.02.

As for DYNC1LI2 (UniProt O43237), the log2 fold change is inactive: -0.001.

As for DNM2 isoform 4 (UniProt P50570), the log2 fold change was inactive: -0.126.

As to DUSP9 (UniProt Q99956), the log2 fold change was inactive: -0.653.

As for DOCK8 (UniProt Q8NF50), the log2 fold change was inactive: -0.241.

Turning to DTYMK (UniProt P23919), the log2 fold change is inactive: -0.02.

As for DNAL1 (UniProt Q4LDG9), the log2 fold change is inactive: -0.081.

For EDRF1 (UniProt Q3B7T1), the log2 fold change is inactive: 0.104.

On to DUS3L (UniProt Q96G46), for which the log2 fold change is inactive: 0.02.

Take DNM2 (UniProt P50570): the log2 fold change was inactive: -0.028.

Take DYRK1A isoform 2 (UniProt Q13627): the log2 fold change is inactive: -0.046.

With DYNC1I2 isoform 5 (UniProt Q13409), the log2 fold change was inactive: 0.012.

For the target DTNBP1 (UniProt Q96EV8), the log2 fold change is inactive: -0.072.

Consider EEA1 (UniProt Q15075), for which the log2 fold change was inactive: 0.07.

Turning to DPH5 isoform 5 (UniProt Q9H2P9), the log2 fold change was inactive: -0.007.

For DUSP14 (UniProt O95147), the log2 fold change is inactive: 0.054.

DNAJC5 (UniProt Q9H3Z4): the log2 fold change is inactive: 0.112.

With DNAJB14 (UniProt H7C494), the log2 fold change is inactive: 0.193.

EDEM2 (UniProt Q9BV94): the log2 fold change is inactive: -0.23.

EBNA1BP2 (UniProt Q99848): the log2 fold change was inactive: -0.081.

Regarding DNAJC24 (UniProt Q6P3W2), the log2 fold change is inactive: 0.185.
